Common to all, as to test: co-IP; endogenous IP and western blot from TCR-stimulated mouse CD4+ T cells; 1% Triton-X, 50 mM Tris pH 8, 100 mM NaCl; 2 to 3 mg extract, Dynabeads with 5 to 8 ug antibody, overnight; lysates preincubated with DNase I (10 ug/ml)
For assay [1], the target named is T1, SMC1A (mouse (endogenous in CD4+ T cells)) (UniProt Q9CU62).
T1 sequence: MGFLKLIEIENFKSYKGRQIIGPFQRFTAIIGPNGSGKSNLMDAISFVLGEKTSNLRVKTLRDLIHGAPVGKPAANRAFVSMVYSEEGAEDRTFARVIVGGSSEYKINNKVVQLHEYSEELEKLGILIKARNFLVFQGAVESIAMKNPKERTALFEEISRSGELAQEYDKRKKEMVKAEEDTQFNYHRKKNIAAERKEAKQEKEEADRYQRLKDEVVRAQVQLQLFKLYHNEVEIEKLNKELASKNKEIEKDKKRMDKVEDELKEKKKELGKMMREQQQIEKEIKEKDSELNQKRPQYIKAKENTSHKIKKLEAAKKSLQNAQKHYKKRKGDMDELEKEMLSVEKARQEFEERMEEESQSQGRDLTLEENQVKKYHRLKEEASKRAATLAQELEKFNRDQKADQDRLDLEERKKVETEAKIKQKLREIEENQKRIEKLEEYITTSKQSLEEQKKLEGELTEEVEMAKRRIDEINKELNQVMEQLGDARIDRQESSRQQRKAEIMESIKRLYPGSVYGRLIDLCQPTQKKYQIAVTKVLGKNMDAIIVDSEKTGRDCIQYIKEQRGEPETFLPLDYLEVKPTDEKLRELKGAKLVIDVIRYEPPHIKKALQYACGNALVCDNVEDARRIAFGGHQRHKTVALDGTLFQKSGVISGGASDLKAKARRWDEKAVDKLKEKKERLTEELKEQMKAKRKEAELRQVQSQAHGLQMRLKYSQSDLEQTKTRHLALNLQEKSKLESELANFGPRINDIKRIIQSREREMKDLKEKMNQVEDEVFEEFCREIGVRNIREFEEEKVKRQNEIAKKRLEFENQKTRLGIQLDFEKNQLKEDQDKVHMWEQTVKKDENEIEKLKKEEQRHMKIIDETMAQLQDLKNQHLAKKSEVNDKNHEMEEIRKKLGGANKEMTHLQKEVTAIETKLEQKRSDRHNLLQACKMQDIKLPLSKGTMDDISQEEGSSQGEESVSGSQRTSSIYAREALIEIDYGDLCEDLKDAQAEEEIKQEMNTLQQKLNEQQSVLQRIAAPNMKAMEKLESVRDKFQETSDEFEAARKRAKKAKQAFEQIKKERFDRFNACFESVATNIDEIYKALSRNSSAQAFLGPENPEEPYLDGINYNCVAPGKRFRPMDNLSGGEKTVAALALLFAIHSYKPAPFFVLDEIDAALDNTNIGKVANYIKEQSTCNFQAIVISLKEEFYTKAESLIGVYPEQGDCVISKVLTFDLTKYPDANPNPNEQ

The chains behind the UniProt entries cited, without tags or fusion partners.
UniProt A2A432: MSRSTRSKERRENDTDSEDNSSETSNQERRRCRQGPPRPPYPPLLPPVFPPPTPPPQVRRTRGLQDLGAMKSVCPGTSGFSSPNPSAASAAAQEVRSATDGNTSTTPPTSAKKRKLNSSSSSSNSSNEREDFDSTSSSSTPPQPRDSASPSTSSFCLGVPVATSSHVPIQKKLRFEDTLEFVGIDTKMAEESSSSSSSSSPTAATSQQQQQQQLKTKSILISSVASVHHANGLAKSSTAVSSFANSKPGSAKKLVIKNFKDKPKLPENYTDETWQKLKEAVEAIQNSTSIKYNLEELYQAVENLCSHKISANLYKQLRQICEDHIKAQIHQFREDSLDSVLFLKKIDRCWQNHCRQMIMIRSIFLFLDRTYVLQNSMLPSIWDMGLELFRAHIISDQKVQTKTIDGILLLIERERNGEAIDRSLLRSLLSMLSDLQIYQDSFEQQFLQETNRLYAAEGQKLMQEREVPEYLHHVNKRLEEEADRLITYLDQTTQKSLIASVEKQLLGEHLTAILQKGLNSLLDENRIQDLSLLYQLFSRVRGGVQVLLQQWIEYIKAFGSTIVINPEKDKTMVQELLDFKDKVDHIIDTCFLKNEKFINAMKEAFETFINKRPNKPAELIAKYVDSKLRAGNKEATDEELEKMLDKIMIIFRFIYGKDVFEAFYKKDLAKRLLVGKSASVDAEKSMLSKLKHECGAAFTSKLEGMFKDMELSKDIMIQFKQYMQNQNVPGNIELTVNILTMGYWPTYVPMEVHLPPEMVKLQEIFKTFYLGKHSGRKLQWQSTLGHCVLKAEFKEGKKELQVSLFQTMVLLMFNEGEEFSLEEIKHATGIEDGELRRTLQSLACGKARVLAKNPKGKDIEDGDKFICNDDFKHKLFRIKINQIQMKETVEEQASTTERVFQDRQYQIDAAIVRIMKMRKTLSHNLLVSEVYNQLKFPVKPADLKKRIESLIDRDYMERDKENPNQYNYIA
UniProt Q80TR8: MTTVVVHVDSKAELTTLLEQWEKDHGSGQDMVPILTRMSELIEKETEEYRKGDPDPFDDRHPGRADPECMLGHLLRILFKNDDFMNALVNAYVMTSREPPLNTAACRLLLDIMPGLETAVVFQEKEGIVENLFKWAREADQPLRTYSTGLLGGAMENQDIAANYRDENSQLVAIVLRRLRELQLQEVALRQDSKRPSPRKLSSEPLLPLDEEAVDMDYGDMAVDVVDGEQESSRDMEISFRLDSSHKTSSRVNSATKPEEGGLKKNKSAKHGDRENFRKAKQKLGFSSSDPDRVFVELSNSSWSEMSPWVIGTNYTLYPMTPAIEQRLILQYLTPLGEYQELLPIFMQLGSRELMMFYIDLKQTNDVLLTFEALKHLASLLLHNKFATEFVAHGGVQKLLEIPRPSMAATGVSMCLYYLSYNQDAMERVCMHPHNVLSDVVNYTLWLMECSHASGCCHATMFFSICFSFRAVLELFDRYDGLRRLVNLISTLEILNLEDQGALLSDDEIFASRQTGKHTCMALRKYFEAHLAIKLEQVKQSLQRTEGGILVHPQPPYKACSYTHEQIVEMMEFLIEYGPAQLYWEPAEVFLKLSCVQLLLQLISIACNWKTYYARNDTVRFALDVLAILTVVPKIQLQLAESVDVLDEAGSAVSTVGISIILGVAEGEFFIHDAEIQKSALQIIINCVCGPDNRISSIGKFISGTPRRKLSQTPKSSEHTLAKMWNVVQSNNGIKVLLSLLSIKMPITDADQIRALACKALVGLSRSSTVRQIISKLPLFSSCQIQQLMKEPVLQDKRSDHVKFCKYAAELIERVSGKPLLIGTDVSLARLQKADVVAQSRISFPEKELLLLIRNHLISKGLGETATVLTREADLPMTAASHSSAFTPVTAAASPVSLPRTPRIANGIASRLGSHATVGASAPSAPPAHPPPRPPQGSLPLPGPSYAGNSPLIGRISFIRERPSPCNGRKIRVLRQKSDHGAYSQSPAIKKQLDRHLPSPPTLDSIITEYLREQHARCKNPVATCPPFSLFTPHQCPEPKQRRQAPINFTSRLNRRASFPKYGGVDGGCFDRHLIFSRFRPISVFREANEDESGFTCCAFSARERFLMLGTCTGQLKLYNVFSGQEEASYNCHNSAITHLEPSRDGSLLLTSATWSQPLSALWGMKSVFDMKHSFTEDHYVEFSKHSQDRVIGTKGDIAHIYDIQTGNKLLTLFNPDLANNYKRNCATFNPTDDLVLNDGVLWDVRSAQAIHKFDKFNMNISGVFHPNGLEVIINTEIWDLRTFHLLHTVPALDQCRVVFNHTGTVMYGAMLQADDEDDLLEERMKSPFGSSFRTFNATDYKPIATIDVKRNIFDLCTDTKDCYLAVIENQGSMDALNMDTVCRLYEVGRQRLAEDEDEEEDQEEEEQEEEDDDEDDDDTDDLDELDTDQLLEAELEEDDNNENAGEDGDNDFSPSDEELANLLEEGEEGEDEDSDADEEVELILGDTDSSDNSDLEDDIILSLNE

The target in assay [2] is Cullin-4b (mouse (endogenous in CD4+ T cells)) (UniProt A2A432).
The target of assay [3] is Vprbp (DCAF1) (mouse (endogenous in CD4+ T cells)) (UniProt Q80TR8).
For assay [4], the target named is Cullin-4b (mouse (endogenous in CD4+ T cells)) (UniProt A2A432). This is another data set of the same source.

The record followed here is PMC7888682.

Like-named read-outs stand apart in the source and are kept apart here. Results are given in words; binding and its absence hold for the method and conditions named. Binding seen in cells or lysates may run through a third protein. Some entries that bind do so weakly or less than the wild type.

On to “Vprbp (DCAF1) (from UniProt Q80TR8 1-1506)”, for which the binding entry in assay [1] and in assay [2] was “binds” in each case.

B1: SMC1A (protein, UniProt Q9CU62 1-1233)
chain: MGFLKLIEIENFKSYKGRQIIGPFQRFTAIIGPNGSGKSNLMDAISFVLGEKTSNLRVKTLRDLIHGAPVGKPAANRAFVSMVYSEEGAEDRTFARVIVGGSSEYKINNKVVQLHEYSEELEKLGILIKARNFLVFQGAVESIAMKNPKERTALFEEISRSGELAQEYDKRKKEMVKAEEDTQFNYHRKKNIAAERKEAKQEKEEADRYQRLKDEVVRAQVQLQLFKLYHNEVEIEKLNKELASKNKEIEKDKKRMDKVEDELKEKKKELGKMMREQQQIEKEIKEKDSELNQKRPQYIKAKENTSHKIKKLEAAKKSLQNAQKHYKKRKGDMDELEKEMLSVEKARQEFEERMEEESQSQGRDLTLEENQVKKYHRLKEEASKRAATLAQELEKFNRDQKADQDRLDLEERKKVETEAKIKQKLREIEENQKRIEKLEEYITTSKQSLEEQKKLEGELTEEVEMAKRRIDEINKELNQVMEQLGDARIDRQESSRQQRKAEIMESIKRLYPGSVYGRLIDLCQPTQKKYQIAVTKVLGKNMDAIIVDSEKTGRDCIQYIKEQRGEPETFLPLDYLEVKPTDEKLRELKGAKLVIDVIRYEPPHIKKALQYACGNALVCDNVEDARRIAFGGHQRHKTVALDGTLFQKSGVISGGASDLKAKARRWDEKAVDKLKEKKERLTEELKEQMKAKRKEAELRQVQSQAHGLQMRLKYSQSDLEQTKTRHLALNLQEKSKLESELANFGPRINDIKRIIQSREREMKDLKEKMNQVEDEVFEEFCREIGVRNIREFEEEKVKRQNEIAKKRLEFENQKTRLGIQLDFEKNQLKEDQDKVHMWEQTVKKDENEIEKLKKEEQRHMKIIDETMAQLQDLKNQHLAKKSEVNDKNHEMEEIRKKLGGANKEMTHLQKEVTAIETKLEQKRSDRHNLLQACKMQDIKLPLSKGTMDDISQEEGSSQGEESVSGSQRTSSIYAREALIEIDYGDLCEDLKDAQAEEEIKQEMNTLQQKLNEQQSVLQRIAAPNMKAMEKLESVRDKFQETSDEFEAARKRAKKAKQAFEQIKKERFDRFNACFESVATNIDEIYKALSRNSSAQAFLGPENPEEPYLDGINYNCVAPGKRFRPMDNLSGGEKTVAALALLFAIHSYKPAPFFVLDEIDAALDNTNIGKVANYIKEQSTCNFQAIVISLKEEFYTKAESLIGVYPEQGDCVISKVLTFDLTKYPDANPNPNEQ
B1: the binding result in assay [3] and in assay [4] was “binds” throughout.

B2: MRE11A (protein, UniProt Q61216 1-706)
chain: MSPTDPLDDEDTFKILVATDIHLGFMEKDAVRGNDTFVTFDEILRLALENEVDFILLGGDLFHENKPSRKTLHSCLELLRKYCMGDRPVQFEVISDQSVNFGFSKFPWVNYQDGNLNISIPVFSIHGNHDDPTGADALCALDVLSCAGFVNHFGRSMSVEKVDISPVLLQKGSTKLALYGLGSIPDERLYRMFVNKKVTMLRPKEDENSWFNLFVIHQNRSKHGNTNFIPEQFLDDFIDLVIWGHEHECKIGPIKNEQQLFYVSQPGSSVVTSLSPGEAVKKHVGLLRIKGRKMNMQKLPLRTVRRFFIEDVVLANHPNLFNPDNPKVTQAIQSFCLEKIEEMLDSAERERLGNPQQPGKPLIRLRVDYSGGFEPFNVLRFSQKFVDRVANPKDVIHFFRHREQKGKTGEEINFGMLITKPASEGATLRVEDLVKQYFQTAEKNVQLSLLTERGMGEAVQEFVDKEEKDAIEELVKYQLEKTQRFLKERHIDALEDKIDEEVRRFRESRQRNTNEEDDEVREAMSRARALRSQSETSTSAFSAEDLSFDTSEQTANDSDDSLSAVPSRGRGRGRGRRGARGQSSAPRGGSQRGRDTGLEITTRGRSSKATSSTSRNMSIIDAFRSTRQQPSRNVAPKNYSETIEVDDSDEDDIFPTNSRADQRWSGTTSSKRMSQSQTAKGVDFESDEDDDDDPFMSSSCPRRNRR
With B2, the binding entry in assay [3] and in assay [4] was “binds” throughout.
